Results from paper PMC12488921.
Results are given in words; binding and its absence hold for the method and conditions named.

The chains behind the UniProt entries cited, without tags or fusion partners. Where a name states a change or a piece, a line headed by the entry shows the natural chain unless it says otherwise. A line that says so, or that is headed by a name, gives the form on record, which may keep a tag or linker. Residues count along the entry.
Human DNAJB6b (O75190-2, form named): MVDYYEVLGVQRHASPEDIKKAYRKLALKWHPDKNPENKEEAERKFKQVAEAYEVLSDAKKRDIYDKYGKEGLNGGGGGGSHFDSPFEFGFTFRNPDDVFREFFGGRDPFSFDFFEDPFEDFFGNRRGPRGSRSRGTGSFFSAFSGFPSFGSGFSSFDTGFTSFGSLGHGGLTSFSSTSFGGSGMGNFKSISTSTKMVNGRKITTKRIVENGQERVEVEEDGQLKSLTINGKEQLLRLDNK
ΔST JB6 (DNAJB6b with the deletion of residues 132-184 from wt) (O75190-2, form named): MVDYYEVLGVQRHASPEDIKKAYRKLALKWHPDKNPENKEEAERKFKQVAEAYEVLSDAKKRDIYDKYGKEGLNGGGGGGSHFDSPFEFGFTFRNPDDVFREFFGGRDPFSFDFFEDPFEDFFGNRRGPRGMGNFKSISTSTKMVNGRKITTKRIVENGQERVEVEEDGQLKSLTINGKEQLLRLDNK

Columns and labels:
Human DNAJB6b (human) = Human DNAJB6b (human) (UniProt O75190); assay: mass photometry; 10 nM pre-equilibrated JB6 (below the cmc), room temperature and 37 °C; buffer filtered through a 5 kDa cutoff spin-filter; compared with eight proteins of known mass; both purified
[1] = biological target: ΔST JB6 (DNAJB6b with the deletion of residues 132-184 from wt) (human) (UniProt O75190); assay: mass photometry; ΔST JB6 as one of the proteins of known mass, ambient temperature; both purified
[2] = biological target: ΔST JB6 (DNAJB6b with the deletion of residues 132-184 from wt) (human) (UniProt O75190); assay: AUC; sedimentation velocity; ΔST JB6 shown together with the pH series of JB6; concentration and pH not stated; both purified

| Substance | binding (Human DNAJB6b (human)) | binding [1] | binding [2] |
| --- | --- | --- | --- |
| Human DNAJB6b (from UniProt O75190-2 1-241) | no binding (condition: at 10 nM JB6 (below the cmc)) | – | – |
| ΔST JB6 (DNAJB6b with the deletion of residues 132-184 from wt) (from UniProt O75190-2 1-241) | – | no binding | no binding |
